From PubChem BioAssay AID328 (DTP/NCI, 2004)
The list does not hold the whole screen: it is rich in T/C values a quarter to a half above the control, in often repeated tests (any T/C) and in doses without a T/C. Other doses and runs of a compound stand elsewhere. T/C: endpoint of the treated group in % of that of the vehicle group. Some entries give survivors of the animals treated and no T/C: the source holds a T/C of zero for them, seemingly a mark for toxic or unscored doses. Some doses without a T/C left all or most animals alive at the check, yet need not have been tolerated: the source hardly ever lists a survival T/C far under the control, and the zero likely stands for such cases as well. Counts of survivors are from the toxicity check (mostly the fifth day) where no day follows; animals may have died later. Schedules are NCI's codes, read here as Q, the interval in days (D) or hours (H), X, the number of doses. Some structures stand for samples that the source files as different forms (salt, stereo form or complex); doses refer to the form tested. Some entries hold several experiments; their values stand side by side, smallest first. For survival time, the PubChem record calls one and a half times the control and up active, and a quarter to a half above the control has no call in these data; cut-offs in other NCI protocols can differ. Some T/C values carry the count of animals alive at the toxicity check (mostly the fifth day); where none is given, no animal had died by that day. Counts like (3×) count equal records among those shown.

Test system: BDF1 mice, P388 leukemia ip, median survival T/C
Assay: NCI In Vivo Anticancer Drug Screen. Data for tumor model P388 Leukemia (intraperitoneal) in B6D2F1 (BDF1) mice
Conditions: T/C endpoint: median survival time, higher T/C = longer survival
Method in brief: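 Each value expresses how treatment altered survival: treated-mouse outcome over vehicle-mouse outcome, both groups bearing the transplanted tumour.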

`COc1cc2c[n+](C)c3c4cc5c(cc4ccc3c2cc1OC)OCO5` was tested, and the T/C (dose: 1.0 mg/kg/injection, schedule: Q01DX009 (ip), vehicle: saline, evaluated on day 30) was 86, 95 [4 of 6 alive], 97, 104, 113, 115 % of control, the T/C (dose: 1.0 mg/kg/injection, schedule: Q01DX009 (ip), vehicle: saline, evaluated on day 60) was 133 and 161 % of control and the T/C (dose: 1.25 mg/kg/injection, schedule: Q01DX009 (ip), vehicle: saline) was 126 % of control. For the same molecule, the T/C (dose: 1.25 mg/kg/injection, schedule: Q01DX009 (ip), vehicle: water) was 122, 124 (2×), 125, 128 % of control (2×), the T/C (dose: 2.0 mg/kg/injection, schedule: Q01DX009 (ip), vehicle: saline, evaluated on day 20) was 114 % of control and the T/C (dose: 2.0 mg/kg/injection, schedule: Q01DX009 (ip), vehicle: saline, evaluated on day 30) was 109, 131, 144, 145 % of control (3×). The T/C (dose: 2.0 mg/kg/injection, schedule: Q01DX009 (ip), vehicle: saline, evaluated on day 60) was 142 and 190 % of control, the T/C (dose: 2.5 mg/kg/injection, schedule: Q01DX009 (ip), vehicle: saline) was 135 % of control and the T/C (dose: 2.5 mg/kg/injection, schedule: Q01DX009 (ip), vehicle: water) was 129 (2×), 138 (2×), 141 % of control (2×). The T/C (dose: 4.0 mg/kg/injection, schedule: Q01DX009 (ip), vehicle: saline, evaluated on day 20) was 157 % of control, the T/C (dose: 4.0 mg/kg/injection, schedule: Q01DX009 (ip), vehicle: saline, evaluated on day 30) was 109, 118 [5 of 6 alive], 150, 150 [5 of 6 alive], 154, 175 % of control and the T/C (dose: 4.0 mg/kg/injection, schedule: Q01DX009 (ip), vehicle: saline, evaluated on day 60) was 209 % of control. For the same molecule, the T/C (dose: 5.0 mg/kg/injection, schedule: Q01DX009 (ip), vehicle: saline) was 144 % of control, the T/C (dose: 5.0 mg/kg/injection, schedule: Q01DX009 (ip), vehicle: water) was 144, 146, 148, 149, 151, 156 % of control [5 of 6 alive] and the T/C (dose: 8.0 mg/kg/injection, schedule: Q01DX009 (ip), vehicle: saline, evaluated on day 20) was 142 % of control. The T/C (dose: 8.0 mg/kg/injection, schedule: Q01DX009 (ip), vehicle: saline, evaluated on day 30) was 145, 150, 154, 157, 163, 168 % of control, the T/C (dose: 8.0 mg/kg/injection, schedule: Q01DX009 (ip), vehicle: saline, evaluated on day 60) was 209 % of control and the T/C (dose: 10.0 mg/kg/injection, schedule: Q01DX005 (ip), vehicle: Klucel (hydroxypropylcellulose) (HPC), evaluated on day 30) was 132, 133, 134, 137, 138, 142, 148, 151 (2×), 155, 158 (4×), 160, 161, 163, 166, 169 (2×), 172, 173, 174, 175, 176 (2×), 177, 178, 183, 185, 228 % of control. For the same molecule, the T/C (dose: 10.0 mg/kg/injection, schedule: Q01DX005 (ip), vehicle: Klucel (hydroxypropylcellulose) (HPC), evaluated on day 35) was 113 % of control, the T/C (dose: 10.0 mg/kg/injection, schedule: Q01DX009 (ip), vehicle: Klucel (hydroxypropylcellulose) (HPC), evaluated on day 30) was 106, 121, 128, 129 (2×), 132, 135, 142 (2×), 144 (2×), 146, 150, 151 (2×), 162 (2×), 163, 165, 166 (2×), 168 [4 of 6 alive], 174, 175, 176 (2×), 180, 184, 185, 186, 189, 205, 209, 211, 214 % of control and the T/C (dose: 10.0 mg/kg/injection, schedule: Q01DX009 (ip), vehicle: Klucel (hydroxypropylcellulose) (HPC), evaluated on day 35) was 180 % of control. For the same molecule, the T/C (dose: 10.0 mg/kg/injection, schedule: Q01DX009 (ip), vehicle: saline) was 145 % of control, the T/C (dose: 10.0 mg/kg/injection, schedule: Q01DX009 (ip), vehicle: water) was 146 (2×), 151, 152, 158, 166, 213 % of control and the T/C (dose: 16.0 mg/kg/injection, schedule: Q01DX009 (ip), vehicle: saline, evaluated on day 20) was 151 % of control. For the same molecule, the T/C (dose: 16.0 mg/kg/injection, schedule: Q01DX009 (ip), vehicle: saline, evaluated on day 30) was 100, 131, 168, 177, 195 % of control (2×), the T/C (dose: 20.0 mg/kg/injection, schedule: Q01DX005 (ip), vehicle: Klucel (hydroxypropylcellulose) (HPC), evaluated on day 30) was 126, 133, 138 [5 of 6 alive], 139, 144, 145, 153, 157 (2×), 158, 161, 163, 166, 173, 174, 175, 176 (2×), 178 (2×), 182 (2×), 183, 183 [5 of 6 alive], 184, 187, 188, 198, 213, 214, 262 % of control and the T/C (dose: 20.0 mg/kg/injection, schedule: Q01DX005 (ip), vehicle: Klucel (hydroxypropylcellulose) (HPC), evaluated on day 35) was 163 % of control. For the same molecule, the T/C (dose: 20.0 mg/kg/injection, schedule: Q01DX009 (ip), vehicle: Klucel (hydroxypropylcellulose) (HPC), evaluated on day 30) was 102 [2 of 3 alive], 131, 133, 136, 141, 143, 147, 154, 160 (3×), 162 (2×), 163, 171, 172, 173, 179, 182 (2×), 185 (2×), 186 (2×), 187, 188, 192, 194, 197, 212, 213, 221, 223, 225, 229 % of control, the T/C (dose: 20.0 mg/kg/injection, schedule: Q01DX009 (ip), vehicle: Klucel (hydroxypropylcellulose) (HPC), evaluated on day 35) was 201 % of control and the T/C (dose: 20.0 mg/kg/injection, schedule: Q01DX009 (ip), vehicle: saline) was 154 [5 of 6 alive], 162, 172, 220 % of control. For the same molecule, the T/C (dose: 20.0 mg/kg/injection, schedule: Q01DX009 (ip), vehicle: water) was 152, 156, 158, 161, 181, 186, 219 % of control [7 of 8 alive], the T/C (dose: 24.0 mg/kg/injection, schedule: Q01DX009 (ip), vehicle: water) was 140 % of control and the T/C (dose: 30.0 mg/kg/injection, schedule: Q04DX002 (ip), vehicle: Klucel (hydroxypropylcellulose) (HPC), evaluated on day 30) was 106 (2×), 111, 130, 139, 140, 147, 151, 153 (2×), 156, 159, 162 (2×), 166, 169, 171 (2×), 172, 175 (2×), 176, 177 (2×), 180, 181, 198, 207 % of control. For the same molecule, the T/C (dose: 30.0 mg/kg/injection, schedule: Q04DX002 (ip), vehicle: Klucel (hydroxypropylcellulose) (HPC), evaluated on day 35) was 146 % of control, the survivor count (dose: 30.0 mg/kg/injection, schedule: Q04DX002 (ip), vehicle: Klucel (hydroxypropylcellulose) (HPC)) was 3 of 3 and the T/C (dose: 30.0 mg/kg/injection, schedule: Q04DX003 (ip), vehicle: Klucel (hydroxypropylcellulose) (HPC), evaluated on day 30) was 86, 100, 134, 135, 137, 146, 150, 152 (2×), 156, 157 (2×), 158, 162, 163 (2×), 165, 169, 171, 172, 175, 181, 183 (2×), 185 (2×), 193, 198, 204, 205, 250 % of control. For the same molecule, the T/C (dose: 30.0 mg/kg/injection, schedule: Q04DX003 (ip), vehicle: Klucel (hydroxypropylcellulose) (HPC), evaluated on day 35) was 188 % of control, the T/C (dose: 32.0 mg/kg/injection, schedule: Q01DX009 (ip), vehicle: saline, evaluated on day 20) was 131 % of control and the T/C (dose: 32.0 mg/kg/injection, schedule: Q01DX009 (ip), vehicle: saline, evaluated on day 30) was 113, 145, 168, 181, 186, 260 % of control. The T/C (dose: 40.0 mg/kg/injection, schedule: Q01DX005 (ip), vehicle: Klucel (hydroxypropylcellulose) (HPC), evaluated on day 30) was 126, 128, 139 (2×), 142, 143, 151, 156, 158, 163, 166 [4 of 6 alive], 169, 175, 179, 185, 191, 192, 193, 199, 206, 210, 215, 219, 220, 228, 236, 243, 249, 270 % of control, the T/C (dose: 40.0 mg/kg/injection, schedule: Q01DX005 (ip), vehicle: Klucel (hydroxypropylcellulose) (HPC), evaluated on day 35) was 201 % of control and the survivor count (dose: 40.0 mg/kg/injection, schedule: Q01DX005 (ip), vehicle: Klucel (hydroxypropylcellulose) (HPC)) was 3 of 3 and 6 of 6. The T/C (dose: 40.0 mg/kg/injection, schedule: Q01DX009 (ip), vehicle: Klucel (hydroxypropylcellulose) (HPC), evaluated on day 30) was 97, 105, 113, 115 (2×), 116, 120, 121, 123, 125, 127, 132, 134, 136 (2×), 141, 142, 156, 157, 158, 161, 165, 171 (3×), 173, 178, 179, 181, 182, 195, 204, 217, 278 % of control.
